The source of these data is PMC7062800.

Construct, isoform or probe ends are uncertain for at least one entry. No signal at the amounts used counts as a negative. For part of these data: At least one verdict was read from the data and is not stated in words by the source. For part of these data: Weaker means in comparison with the reference protein, sequence or condition of that experiment.

Data set [1] relates to RdhK1 (CprK4) (Desulfitobacterium hafniense DCB-2). Put plainly: EMSA. The settings on record: EMSA: 100 ng DNA, 2 uM protein, 200 uM effector, 15 uL, 40% glycerol, 10 mM MgCl2, 500 mM NaCl, 5 mM EDTA, 10 mM DTT, 30 min, recombinant protein.
Data set [2] concerns RdhK6 (CprK1) (Desulfitobacterium hafniense DCB-2). Put plainly: EMSA. The following applies: EMSA: 100 ng DNA, 2 uM protein, 200 uM effector, 15 uL, 40% glycerol, 10 mM MgCl2, 500 mM NaCl, 5 mM EDTA, 10 mM DTT, 30 min, recombinant protein. For orientation: Mobility shift assays separate free from complexed probe on a gel.

For the sequence “GAATTCTCAGGCGATGTAACCGCTTTCAAAGTTAATACACATTAATACTCTTAACAATGTGATAGCTATGATTGCACCG (double strand) [mgl-DB7]”, the binding result in data set [1] (200 uM 3,5-DCP) is “binds more weakly”; in data set [1] (200 uM Cl-OHPA), “binds more weakly”; in data set [2] (200 uM 3,5-DCP), “no binding”; in data set [2] (no effector), “no binding”.

“GAATTCTCAGGCGATGTAACCGCTTTCAGCCTCTAGTGGCTGGCTTGATCTTAACAATGTGATAGCTATGATTGCACCG (double strand) [mgl-noDB]”: the binding result in data set [1] (Cl-OHPA or 3,5-DCP) and in data set [2] (Cl-OHPA or 3,5-DCP) was “no binding” in each case.
